Reference: PMC7154835
Results are given in words; binding and its absence hold for the method and conditions named. Binding seen in cells or lysates may run through a third protein. Where a sequence is shown, tags or fusion partners need not be part of it.

Molecular target: T1, FLAG-tagged MEMB12 (UniProt Q9FK28)
T1 sequence: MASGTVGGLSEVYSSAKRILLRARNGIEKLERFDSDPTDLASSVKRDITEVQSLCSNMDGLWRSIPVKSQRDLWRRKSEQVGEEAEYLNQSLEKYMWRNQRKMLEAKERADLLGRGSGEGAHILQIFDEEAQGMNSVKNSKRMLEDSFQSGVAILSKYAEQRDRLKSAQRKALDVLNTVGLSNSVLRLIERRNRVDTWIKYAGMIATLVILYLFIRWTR
Assay: co-IP; HA-AtAGO2 co-expressed with AtXRN4-FLAG or MEMB12-FLAG in N. benthamiana, 72 hpi; leaf extract (20 mM Tris-HCl pH 7.5, 300 mM NaCl, 5 mM MgCl2, 5 mM DTT, 0.5% TWEEN-20) incubated with FLAG beads 4 h; blot with anti-HA

B1: HA-tagged Arabidopsis Argonaute 2 (AtAGO2) (protein, UniProt Q9SHF3 1-1014)
chain: MERGGYRGGRGDGRGRGGRGYGGGGGGGEQGRDRGYGGGEQGRGRGSERGGGNRGQGRGEQQDFRSQSQRGPPPGHGGRGTTQFQQPRPQVAPQPSQAPASYAGSVGGVAGRGAWGRKPQVPSDSASPSTSTTVVSEPVRVAEVMNLKPSVQVATSDRKEPMKRPDRGGVVAVRRVNLYVNHYKVNFNPESVIRHYDVEIKGEIPTKKVSRFELAMVRDKVFTDNPDEFPLAMTAYDGQKNIFSAVELPTGSYKVEYPKTEEMRGRSYTFTIKQVNVLKLGDLKEYMTGRSSFNPRDVLQGMDVVMKEHPSKCMITVGKSFFTRETEPDEDFRFGVIAAKGYRHTLKPTAQGLSLCLDYSVLAFRKAMSVIEYLKLYFNWSDMRQFRRRDVEEELIGLKVTVNHRKNKQKLTIVGLSMQNTKDIKFDLIDQEGNEPPRKTSIVEYFRIKYGRHIVHKDIPCLDLGKNGRQNFVPMEFCDLVEGQIYPKDNLDKDSALWLKKLSLVNPQQRQRNIDKMIKARNGPSGGEIIGNFGLKVDTNMTPVEGRVLKAPSLKLAERGRVVREEPNPRQNNQWNLMKKGVTRGSIVKHWAVLDFTASERFNKMPNDFVDNLIDRCWRLGMQMEAPIVYKTSRMETLSNGNAIEELLRSVIDEASRKHGGARPTLVLCAMSRKDDGYKTLKWIAETKLGLVTQCFLTGPATKGGDQYRANLALKMNAKVGGSNVELMDTFSFFKKEDEVMFIGADVNHPAARDKMSPSIVAVVGTLNWPEANRYAARVIAQPHRKEEIQGFGDACLELVKAHVQATGKRPNKIVIFRDGVSDAQFDMVLNVELLDVKLTFEKNGYNPKITVIVAQKRHQTRFFPATNNDGSDKGNVPSGTVVDTKVIHPYEYDFYLCSHHGGIGTSKPTHYYTLWDELGFTSDQVQKLIFEMCFTFTRCTKPVSLVPPVYYADMVAFRGRMYHEASSREKNFKQPRGASTSAASLASSLSSLTIEDKAIFKLHAELENVMFFV
B1 was tested, and the binding was “no binding”.
